Results are given in words; binding and its absence hold for the method and conditions named. Some entries that bind do so weakly or less than the wild type. Where a sequence is shown, tags or fusion partners need not be part of it.
Target: ArqI superfolder GFP fusion, wild type (Pseudomonas aeruginosa MPAO1)
Test: FRAP (fluorescence recovery after photobleaching); sfGFP fusions in live P. aeruginosa cells on agarose pads, 0.02% arabinose, 23 °C; effective diffusion constants

B1: ArqI superfolder GFP fusion, wild type (protein)
chain: MTYHVLVQFDVPSDKREAFAAAGLFDANGSLQNEPGTLRFEVIRDENNRNRFYLDEVYEDEAAFLQHCRNETIARFYELIDSYAFGPLFLFKGYRVEG
In the case of B1, the binding is reported as “binds”.

Source: PMC12274486, “A glyoxal-specific aldehyde signaling axis in Pseudomonas aeruginosa that influences quorum sensing and infection” (Nature Communications, 2025)
